Key:
H1975 cells = details: serum-free matrigel, different concentrations
MCL-1 = MCL-1 protein expression by western blot in H1975 cells; format: cell-based, human
Method: (§1) The abilities of compounds of the invention to inhibit BMI-1/MCl-1 expressions were assayed with cell cultures. BMI-1 and MCL-1 are overexpressed in many cancers, such as lung cancer cell line H1975. Therefore, cancer cells that overexpress BMI-1/MCL-1 provide a convenient platform for assaying BMI-1/MCL-1 inhibition.
(§2) After drug treatments, cells were washed twice with PBS, scraped, and resuspended in RIPA buffer containing protease inhibitors (20 mM Tris-HCl pH 7.5, 150 mM NaCl, 1 mM Na2EDTA, 1 mM EGTA, 1% NP-40, 1% sodium deoxycholate, 2.5 mM sodium pyrophosphate, 1 mM b-glycerophosphate, 1 mM Na3VO4, 1 μg/ml leupeptin). Cell lysate was sonicated for 5-10 min, and centrifuged at 14000 rpm for 20 minutes at 4° C. The supernatant was collected, determined for protein concentrations, and stored at −80° C. before further use.
(§3) BMI-1/MCL-1 expression levels may be assessed with western blot analysis. […] The denatured protein samples were then loaded in 10% Tris-Glycine SDS polyacrylamide gel for separating proteins. The power supply for the running condition was set at 80 V for running stacking gel and 100 V for separating gel, respectively. […] The power supply for the transfer condition was set at 300 mA, and the transfer was carried out on ice for 2.5 hours. […]

BMI-1 = BMI-1 protein expression by western blot in H1975 cells; format: cell-based, human
Method: as §1, §2, §3

With `CCN(CC)C(=O)N[C@@H]1C=C2c3cccc4[nH]cc(c34)C[C@H]2N(C)C1` [lisuride, reference compound] the “inhibition of H1975 cell spheroid formation” value (H1975 cells) was “dose-dependent manner”, the “inhibition of MCL-1 expression, dose dependence” value (MCL-1) was “inhibition of BMI-1 and MCL-1 expressions” and the “inhibition of BMI-1 expression, dose dependence” value (BMI-1) was “inhibited BMI-1 expression”.
